Reference: PubChem BioAssay AID602196 (INSERM, 2012)

Assay: 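Modifiers of cisplatin sensitivity in A549 cells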
System: human A549 lung cancer cells
Knock-down reagent: siRNA pair against human genes
Timing: 48 h transfection before cisplatin; time from cisplatin to read-out not stated
Treatment: cisplatin at a dose killing half of control-siRNA cells; exact dose and duration not given
Measurement: 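Cisplatin cell death as a shift from the 50% death seen with control siRNA; siRNAs toxic or growth-blocking alone scored 0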
Direction: two-siRNA summed score (-2 to +2): higher = both siRNAs protect from cisplatin killing; -2 means both sensitise; mean protection from cisplatin (shift in death): higher = protection from cisplatin killing
Call rule: 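siRNAs harmful alone (LDH or WST-1) get 0; others get +1 for less and -1 for more cisplatin killing; genes are active when the two siRNAs give the same sign, summing to ±2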
Calls: active = both siRNAs shift cisplatin killing the same way; inactive = no consistent shift, or siRNA harmful alone
The deposit covers about 23,000 reagents; below is an unselected part. 455 of all reagents (2%) were called active. 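Active includes both protection and sensitisation; some change values fall well beyond the stated -50 to +50 range.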 A number with no mark means an inactive call. Reagents against one gene are numbered here. Not all columns of the deposit are shown. Not stated in the record: the amount of reagent.

target | reagent no. | two-siRNA summed score (-2 to +2) | mean protection from cisplatin (shift in death) (%)
IGSF11 (immunoglobulin superfamily member 11) | 1 | 0 | 4.6
IGSF11 (immunoglobulin superfamily member 11) | 2 | 0 | 5.1
ZNF286A (zinc finger protein 286A) | 1 | 1 | 16.6
ZNF185 (zinc finger protein 185 with LIM domain) | 1 | 1 | 7.7
ABHD5 | 1 | 0 | 3.6
TRIM68 (tripartite motif containing 68) | 1 | 0 | -16.3
RAB11FIP4 (RAB11 family interacting protein 4) | 1 | 0 | 1.2
LOC389168 | 1 | 0 | 24.5
DOK7 (docking protein 7) | 1 | 0 | 8.4

Reprinted from the entries so far (3 entries):
target | reagent no. | two-siRNA summed score (-2 to +2) | mean protection from cisplatin (shift in death) (%)
RAB11FIP4 (RAB11 family interacting protein 4) | 1 | 0 | 1.2
LOC389168 | 1 | 0 | 24.5
DOK7 (docking protein 7) | 1 | 0 | 8.4

The results go on.
target | reagent no. | two-siRNA summed score (-2 to +2) | mean protection from cisplatin (shift in death) (%)
CAMK1 (calcium/calmodulin dependent protein kinase I) | 1 | 1 | 20.1
SPINK13 (serine peptidase inhibitor Kazal type 13) | 1 | 0 | 1.1
TEX11 (testis expressed 11) | 1 | 1 | 15.8
SND1 (staphylococcal nuclease and tudor domain containing 1) | 1 | 0 | -2.2
RNF181 (ring finger protein 181) | 1 | 0 | 1.6
LINC00173 (long independently transcribed non-coding RNA 173) | 1 | 0 | 4.1
LOC389850 | 1 | 1 | 5.9
LOC441491 | 1 | 0 | -0.4
IGF2BP3 (insulin like growth factor 2 mRNA binding protein 3) | 1 | 0 | 14.4
OBI1 (ORC ubiquitin ligase 1) | 1 | 1 | 10.1
HPCAL1 (hippocalcin like 1) | 1 | 0 | 8.2
MS4A12 (membrane spanning 4-domains A12) | 1 | 0 | 0.5
STAU1 (staufen double-stranded RNA binding protein 1) | 1 | 1 | 9
TIE1 | 1 | 0 | -5.3
